Reference: US20250092108A1
Results are given in words; binding and its absence hold for the method and conditions named. Some results given as binding are weak or reduced against the parent protein; the word gives no strength.

The chains behind the UniProt entries cited, without tags or fusion partners. Residues count along the entry.
UniProt P01589, residues 22-213: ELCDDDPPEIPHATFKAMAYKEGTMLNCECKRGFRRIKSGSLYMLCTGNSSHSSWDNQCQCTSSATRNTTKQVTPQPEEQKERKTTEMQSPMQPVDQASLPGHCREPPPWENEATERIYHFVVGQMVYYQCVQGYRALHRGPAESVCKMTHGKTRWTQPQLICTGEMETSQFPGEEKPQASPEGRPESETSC

Molecular target: human CD25 (IL-2Rα) (human) (UniProt P01589)
Assay: Biacore SPR, human CD25 captured on the chip, IL-2 variant as analyte, pH 7.4 and pH 6.0

B1: XENP14381 (prior art IL-2 variant, mutant 2-4 with Q126T, with R38L) (ligand)
chain: APTSSSTKKTQLQLEHLLLDLQMILNGISNHKNPRLALMLTFKFYMPEKATELKHLQCLEEELKPLEEALRLAPSKNFHLRPRDLISDVNVIVLELKGSETTFMCEYADETATIVEFLNRWITFSTSIISTLTHHHHHHHH
- binding: binds
